In the supplement of paper PMC12819154, “High-throughput peptide-centric local stability assay extends protein–ligand identification to membrane proteins, tissues and bacteria” (Nature Structural & Molecular Biology, 2025):
The other results are listed elsewhere or left out. Most entries show no effect beyond the scatter of the controls.

The chains behind the UniProt entries cited, without tags or fusion partners. Where a name states a change or a piece, a line headed by the entry shows the natural chain unless it says otherwise.
UniProt Q8BXK8: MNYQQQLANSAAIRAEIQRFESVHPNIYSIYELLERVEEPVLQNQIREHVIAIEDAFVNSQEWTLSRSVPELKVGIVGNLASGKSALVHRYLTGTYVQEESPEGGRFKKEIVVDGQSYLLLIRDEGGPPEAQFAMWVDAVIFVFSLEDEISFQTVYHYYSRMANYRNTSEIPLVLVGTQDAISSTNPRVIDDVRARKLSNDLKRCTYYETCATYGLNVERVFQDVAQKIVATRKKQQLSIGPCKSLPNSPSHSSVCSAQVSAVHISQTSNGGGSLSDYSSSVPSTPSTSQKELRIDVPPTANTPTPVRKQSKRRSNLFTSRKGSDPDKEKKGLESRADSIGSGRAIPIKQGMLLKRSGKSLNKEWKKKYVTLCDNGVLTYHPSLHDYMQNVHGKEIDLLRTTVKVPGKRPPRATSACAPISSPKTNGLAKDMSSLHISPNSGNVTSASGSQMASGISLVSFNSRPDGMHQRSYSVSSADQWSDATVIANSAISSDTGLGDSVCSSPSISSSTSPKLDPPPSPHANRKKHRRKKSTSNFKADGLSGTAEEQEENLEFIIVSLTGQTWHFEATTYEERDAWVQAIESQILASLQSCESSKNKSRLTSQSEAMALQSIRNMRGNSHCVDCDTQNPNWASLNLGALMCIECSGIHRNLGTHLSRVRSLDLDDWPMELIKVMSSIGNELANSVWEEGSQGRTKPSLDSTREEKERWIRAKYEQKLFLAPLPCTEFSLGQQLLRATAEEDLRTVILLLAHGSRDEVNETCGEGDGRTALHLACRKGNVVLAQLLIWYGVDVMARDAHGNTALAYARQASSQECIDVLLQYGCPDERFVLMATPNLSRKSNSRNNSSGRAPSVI
UniProt Q8BYJ6: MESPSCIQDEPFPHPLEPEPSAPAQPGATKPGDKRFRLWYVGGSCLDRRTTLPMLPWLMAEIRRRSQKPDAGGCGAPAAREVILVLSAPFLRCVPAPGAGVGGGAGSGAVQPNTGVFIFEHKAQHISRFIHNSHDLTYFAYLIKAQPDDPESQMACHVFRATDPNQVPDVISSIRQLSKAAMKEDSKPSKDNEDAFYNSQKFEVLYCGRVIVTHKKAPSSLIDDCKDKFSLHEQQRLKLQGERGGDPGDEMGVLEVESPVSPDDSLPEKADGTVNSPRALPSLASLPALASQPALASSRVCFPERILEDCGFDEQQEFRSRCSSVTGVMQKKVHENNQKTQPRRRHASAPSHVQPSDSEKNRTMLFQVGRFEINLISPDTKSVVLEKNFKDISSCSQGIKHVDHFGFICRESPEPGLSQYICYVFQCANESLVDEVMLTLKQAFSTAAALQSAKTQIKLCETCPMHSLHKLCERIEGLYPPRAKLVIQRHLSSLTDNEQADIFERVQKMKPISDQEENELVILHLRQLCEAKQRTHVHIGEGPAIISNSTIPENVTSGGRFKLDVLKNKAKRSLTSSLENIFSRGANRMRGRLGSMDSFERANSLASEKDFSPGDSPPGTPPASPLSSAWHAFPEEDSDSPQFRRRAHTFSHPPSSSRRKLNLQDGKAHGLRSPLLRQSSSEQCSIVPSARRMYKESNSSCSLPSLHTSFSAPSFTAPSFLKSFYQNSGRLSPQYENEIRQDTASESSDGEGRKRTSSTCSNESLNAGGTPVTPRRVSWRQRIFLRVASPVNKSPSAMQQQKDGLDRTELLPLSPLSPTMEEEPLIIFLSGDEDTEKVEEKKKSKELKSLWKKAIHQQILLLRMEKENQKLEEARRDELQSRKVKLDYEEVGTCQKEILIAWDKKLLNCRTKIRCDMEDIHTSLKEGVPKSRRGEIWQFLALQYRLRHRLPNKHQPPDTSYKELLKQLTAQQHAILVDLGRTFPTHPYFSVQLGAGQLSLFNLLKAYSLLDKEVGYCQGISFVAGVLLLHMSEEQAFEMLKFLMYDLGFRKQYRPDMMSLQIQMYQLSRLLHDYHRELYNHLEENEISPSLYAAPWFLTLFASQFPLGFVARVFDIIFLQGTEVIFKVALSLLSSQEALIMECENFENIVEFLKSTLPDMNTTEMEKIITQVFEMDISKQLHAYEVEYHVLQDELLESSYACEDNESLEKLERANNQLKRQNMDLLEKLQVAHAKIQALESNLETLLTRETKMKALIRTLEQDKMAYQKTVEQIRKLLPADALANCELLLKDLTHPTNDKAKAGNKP
UniProt Q8BVI4: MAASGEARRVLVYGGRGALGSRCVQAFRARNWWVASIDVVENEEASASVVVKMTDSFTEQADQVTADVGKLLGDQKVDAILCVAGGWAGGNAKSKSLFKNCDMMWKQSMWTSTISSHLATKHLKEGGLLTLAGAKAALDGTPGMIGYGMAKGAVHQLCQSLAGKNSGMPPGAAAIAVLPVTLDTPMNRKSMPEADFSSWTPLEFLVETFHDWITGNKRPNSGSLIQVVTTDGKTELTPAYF
UniProt Q8C2A2: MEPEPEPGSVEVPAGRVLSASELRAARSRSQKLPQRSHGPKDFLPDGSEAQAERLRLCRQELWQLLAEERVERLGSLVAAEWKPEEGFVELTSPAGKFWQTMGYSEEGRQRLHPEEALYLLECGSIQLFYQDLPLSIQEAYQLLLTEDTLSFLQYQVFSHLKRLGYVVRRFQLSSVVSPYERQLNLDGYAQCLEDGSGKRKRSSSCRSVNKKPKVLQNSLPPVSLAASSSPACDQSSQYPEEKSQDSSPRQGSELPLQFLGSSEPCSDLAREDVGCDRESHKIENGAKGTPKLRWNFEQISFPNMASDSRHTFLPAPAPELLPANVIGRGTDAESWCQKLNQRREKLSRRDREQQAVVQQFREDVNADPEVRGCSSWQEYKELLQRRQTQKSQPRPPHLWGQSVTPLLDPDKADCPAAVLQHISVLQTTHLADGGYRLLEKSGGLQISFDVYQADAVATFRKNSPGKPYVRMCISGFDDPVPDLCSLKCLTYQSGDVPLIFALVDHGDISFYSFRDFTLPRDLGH
UniProt Q8BYA0: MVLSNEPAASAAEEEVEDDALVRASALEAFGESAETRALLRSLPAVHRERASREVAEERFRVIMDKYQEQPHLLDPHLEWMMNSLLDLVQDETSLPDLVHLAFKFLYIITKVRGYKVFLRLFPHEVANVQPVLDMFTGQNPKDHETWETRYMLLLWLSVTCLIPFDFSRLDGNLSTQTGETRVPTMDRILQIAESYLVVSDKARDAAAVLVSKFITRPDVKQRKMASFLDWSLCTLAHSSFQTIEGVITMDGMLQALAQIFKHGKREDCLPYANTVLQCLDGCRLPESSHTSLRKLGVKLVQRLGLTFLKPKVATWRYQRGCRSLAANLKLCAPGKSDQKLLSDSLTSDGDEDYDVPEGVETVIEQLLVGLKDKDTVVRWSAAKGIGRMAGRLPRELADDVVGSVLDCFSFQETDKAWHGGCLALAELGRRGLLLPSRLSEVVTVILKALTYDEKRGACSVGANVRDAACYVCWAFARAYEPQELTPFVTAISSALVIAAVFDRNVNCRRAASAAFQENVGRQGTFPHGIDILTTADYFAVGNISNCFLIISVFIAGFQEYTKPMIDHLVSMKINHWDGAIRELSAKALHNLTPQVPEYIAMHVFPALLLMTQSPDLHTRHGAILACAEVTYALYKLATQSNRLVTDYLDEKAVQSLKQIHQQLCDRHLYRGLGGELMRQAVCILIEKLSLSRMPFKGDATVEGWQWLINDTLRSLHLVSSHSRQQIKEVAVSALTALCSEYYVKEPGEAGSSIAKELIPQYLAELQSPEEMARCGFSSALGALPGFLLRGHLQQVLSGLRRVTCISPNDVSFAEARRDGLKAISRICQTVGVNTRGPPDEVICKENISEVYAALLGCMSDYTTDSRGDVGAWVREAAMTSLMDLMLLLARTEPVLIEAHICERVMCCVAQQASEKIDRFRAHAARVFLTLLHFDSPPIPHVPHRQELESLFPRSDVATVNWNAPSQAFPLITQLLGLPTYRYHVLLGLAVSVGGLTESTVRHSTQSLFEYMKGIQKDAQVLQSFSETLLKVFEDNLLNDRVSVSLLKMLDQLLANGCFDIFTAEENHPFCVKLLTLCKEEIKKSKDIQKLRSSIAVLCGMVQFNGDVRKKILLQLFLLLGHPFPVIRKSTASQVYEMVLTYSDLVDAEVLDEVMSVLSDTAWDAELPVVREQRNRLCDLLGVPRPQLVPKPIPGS
UniProt Q8BZH4: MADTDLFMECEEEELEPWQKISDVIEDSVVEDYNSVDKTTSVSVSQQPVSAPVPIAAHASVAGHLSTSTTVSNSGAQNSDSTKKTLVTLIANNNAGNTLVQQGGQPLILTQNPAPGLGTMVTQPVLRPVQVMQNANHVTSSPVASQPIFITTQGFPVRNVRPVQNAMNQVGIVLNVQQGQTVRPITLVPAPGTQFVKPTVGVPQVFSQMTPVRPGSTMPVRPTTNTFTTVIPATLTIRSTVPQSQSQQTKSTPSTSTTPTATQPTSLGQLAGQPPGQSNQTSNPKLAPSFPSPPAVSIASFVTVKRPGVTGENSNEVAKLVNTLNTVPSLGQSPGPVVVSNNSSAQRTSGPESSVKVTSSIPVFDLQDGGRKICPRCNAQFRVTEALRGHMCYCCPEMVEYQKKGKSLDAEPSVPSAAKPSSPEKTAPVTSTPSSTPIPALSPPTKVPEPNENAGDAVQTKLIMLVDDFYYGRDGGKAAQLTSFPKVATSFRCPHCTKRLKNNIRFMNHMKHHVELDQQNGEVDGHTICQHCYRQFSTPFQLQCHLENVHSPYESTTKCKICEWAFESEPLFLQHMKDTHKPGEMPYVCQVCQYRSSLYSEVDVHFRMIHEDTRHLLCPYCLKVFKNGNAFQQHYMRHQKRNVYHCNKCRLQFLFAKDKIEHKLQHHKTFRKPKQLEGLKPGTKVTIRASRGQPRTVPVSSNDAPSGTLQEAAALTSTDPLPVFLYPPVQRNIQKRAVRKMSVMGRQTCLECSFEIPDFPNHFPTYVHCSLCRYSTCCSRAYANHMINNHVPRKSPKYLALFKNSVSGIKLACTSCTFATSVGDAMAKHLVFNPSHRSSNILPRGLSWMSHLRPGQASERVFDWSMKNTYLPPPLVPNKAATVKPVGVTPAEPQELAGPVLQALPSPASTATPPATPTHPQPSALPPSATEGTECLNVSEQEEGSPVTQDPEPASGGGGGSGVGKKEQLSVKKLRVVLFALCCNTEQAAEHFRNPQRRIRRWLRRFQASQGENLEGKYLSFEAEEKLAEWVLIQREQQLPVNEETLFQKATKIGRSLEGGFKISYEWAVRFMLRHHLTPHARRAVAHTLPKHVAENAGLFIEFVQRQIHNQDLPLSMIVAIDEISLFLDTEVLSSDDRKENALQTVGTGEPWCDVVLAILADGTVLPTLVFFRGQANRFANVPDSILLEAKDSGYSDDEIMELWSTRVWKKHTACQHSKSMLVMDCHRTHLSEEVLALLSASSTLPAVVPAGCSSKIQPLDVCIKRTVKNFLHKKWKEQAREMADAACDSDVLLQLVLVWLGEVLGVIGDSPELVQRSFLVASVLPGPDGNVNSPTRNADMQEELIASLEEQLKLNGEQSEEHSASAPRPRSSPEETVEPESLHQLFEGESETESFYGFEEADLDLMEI
UniProt Q8BWF2: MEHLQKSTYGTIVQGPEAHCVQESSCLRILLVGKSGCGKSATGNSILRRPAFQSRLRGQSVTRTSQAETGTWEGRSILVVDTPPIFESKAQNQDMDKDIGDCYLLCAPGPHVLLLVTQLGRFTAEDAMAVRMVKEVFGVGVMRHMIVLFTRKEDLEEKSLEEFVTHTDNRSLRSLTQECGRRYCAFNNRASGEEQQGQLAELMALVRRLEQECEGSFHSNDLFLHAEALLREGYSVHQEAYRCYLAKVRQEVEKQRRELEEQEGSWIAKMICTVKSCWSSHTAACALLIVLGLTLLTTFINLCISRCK
UniProt Q8C1E7: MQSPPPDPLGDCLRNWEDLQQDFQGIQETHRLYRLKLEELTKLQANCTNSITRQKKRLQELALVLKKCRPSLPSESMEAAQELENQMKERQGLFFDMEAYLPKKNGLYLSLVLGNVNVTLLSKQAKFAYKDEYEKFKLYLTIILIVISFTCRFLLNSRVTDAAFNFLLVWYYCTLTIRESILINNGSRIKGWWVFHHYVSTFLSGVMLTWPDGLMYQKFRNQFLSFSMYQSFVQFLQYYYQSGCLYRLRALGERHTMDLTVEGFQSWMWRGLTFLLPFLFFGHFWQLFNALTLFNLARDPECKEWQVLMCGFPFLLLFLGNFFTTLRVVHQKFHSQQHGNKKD
UniProt Q8BYB9: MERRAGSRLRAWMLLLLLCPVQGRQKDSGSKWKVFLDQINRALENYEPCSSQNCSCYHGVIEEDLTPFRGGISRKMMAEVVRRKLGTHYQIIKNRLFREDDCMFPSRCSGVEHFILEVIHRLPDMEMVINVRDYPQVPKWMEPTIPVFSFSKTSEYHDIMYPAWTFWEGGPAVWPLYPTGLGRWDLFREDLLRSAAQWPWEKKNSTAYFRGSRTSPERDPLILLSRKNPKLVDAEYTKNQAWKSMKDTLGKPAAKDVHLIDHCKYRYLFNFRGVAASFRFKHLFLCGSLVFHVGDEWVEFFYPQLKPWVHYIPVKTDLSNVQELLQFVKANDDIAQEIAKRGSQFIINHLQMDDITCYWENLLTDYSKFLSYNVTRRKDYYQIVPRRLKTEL

The targets below were run with CN[C@@H]1C[C@H]2O[C@@](C)([C@@H]1OC)n1c3ccccc3c3c4c(c5c6ccccc6n2c5c31)C(=O)NC4 [staurosporine] (assay: log2 fold change of tryptic peptide abundance, ligand vs vehicle (limited proteolysis) (log2 ratio); higher = more trypsin-susceptible (destabilized)). Settings: ligand concentration: 20 uM; sample: mouse liver crude lysate; replicate design: treated separately.

| Target | log2 fold change |
| --- | --- |
| UniProt Q8BZ36 (peptide sequence: NLFPLFSHYCK, peptide start residue: 711) | 0.19 |
| UniProt Q8BXB6 (peptide sequence: TTMGTEDMHER, peptide start residue: 8) | -0.106 |
| UniProt Q8C0Q2 (peptide sequence: KSTTPCMIPVK, peptide start residue: 6) | 0.209 |
| UniProt Q8BXK8 (peptide sequence: SLNKEWK, peptide start residue: 416) | -0.239 |
| UniProt Q8BYJ6 (peptide sequence: AHTFSHPPSSSR, peptide start residue: 647) | -0.12 |
| UniProt Q8BXK9 (peptide sequence: ESNTAGIDIFSK, peptide start residue: 110) | 0.167 |
| UniProt Q8BVI4 (peptide sequence: SLFKNCDMMWK, peptide start residue: 96) | -0.476 |
| UniProt Q8C262 (peptide sequence: SSLINALR, peptide start residue: 66) | 0.143 |
| UniProt Q8C6E0 (peptide sequence: VHFANQSVQPLAR, peptide start residue: 217) | -0.129 |
| UniProt Q8C5W0 (peptide sequence: RSNSLPVKK, peptide start residue: 416) | -0.412 |
| UniProt Q8C1A9 (peptide sequence: QAIYDAFER, peptide start residue: 449) | -0.21 |
| UniProt Q8BW10 (peptide sequence: YAINPHLTEDQR, peptide start residue: 325) | -0.125 |
| UniProt Q8C2A2 (peptide sequence: SHGPKDFLPDGSEAQAER, peptide start residue: 37) | 0.554 |
| UniProt Q8BWA8 (peptide sequence: TSDGWLEGVR, peptide start residue: 748) | -0.459 |
| UniProt Q8BYH8 (peptide sequence: ELQNHLGLSAPVPR, peptide start residue: 1566) | 0.258 |
| UniProt Q8C8V1 (peptide sequence: RKHDDDR, peptide start residue: 381) | 0.0294 |
| UniProt Q8C4B4 (peptide sequence: AATAGSQAGPGGLVAGKEEK, peptide start residue: 8) | -0.122 |
| UniProt Q8BYR5 (peptide sequence: EVLVAPGVSQR, peptide start residue: 21) | 0.294 |

Fetched one by one from above (2):

| Target | log2 fold change |
| --- | --- |
| UniProt Q8C6E0 (peptide sequence: VHFANQSVQPLAR, peptide start residue: 217) | -0.129 |
| UniProt Q8BW10 (peptide sequence: YAINPHLTEDQR, peptide start residue: 325) | -0.125 |

Further records follow.

| Target | log2 fold change |
| --- | --- |
| UniProt Q8BY87 (peptide sequence: AETVAAPVTVR, peptide start residue: 725) | -0.609 |
| UniProt Q8BYA0 (peptide sequence: LGLTFLKPK, peptide start residue: 304) | 0.57 |
| UniProt Q8C0C7 (peptide sequence: THTTAASAR, peptide start residue: 326) | 0.527 |
| UniProt Q8C1Y8 (peptide sequence: EGEEENKILFYHPNEVEKNEK, peptide start residue: 36) | -0.493 |
| UniProt Q8BZQ7 (peptide sequence: QQLLVSLK, peptide start residue: 387) | 0.55 |
| UniProt Q8C5Q4 (peptide sequence: ATGEADVHFDTHEDAVAAMLKDR, peptide start residue: 438) | 0.962 |
| UniProt Q8BZI6 (peptide sequence: YCCFTPSGHR, peptide start residue: 166) | 0.297 |
| UniProt Q8BZH4 (peptide sequence: GHMCYCCPEMVEYQK, peptide start residue: 389) | 0.477 |
| UniProt Q8C753 (peptide sequence: KAVHTDFSR, peptide start residue: 86) | -0.592 |
| UniProt Q8BZH1 (peptide sequence: MRVNEYK, peptide start residue: 114) | 0.151 |
| UniProt Q8BWF2 (peptide sequence: KEDLEEK, peptide start residue: 152) | -0.0337 |
| UniProt Q8BZ20 (peptide sequence: TSLGTDALER, peptide start residue: 33) | -0.161 |
| UniProt Q8C7H1 (peptide sequence: DHTEGLSDKEQR, peptide start residue: 70) | 0.28 |
| UniProt Q8C1E7 (peptide sequence: LQANCTNSITR, peptide start residue: 43) | -0.0821 |
| UniProt Q8BYB9 (peptide sequence: TSPERDPLILLSR, peptide start residue: 214) | 0.174 |
| UniProt Q8C3X2 (peptide sequence: RPVDITPLEQR, peptide start residue: 47) | -0.156 |
| UniProt Q8C170 (peptide sequence: SLEDRPQFISR, peptide start residue: 2474) | -0.313 |
